# Melanoma cell counts after drug treatment

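Human melanoma cells were exposed to two drugs together for 72 h in 1,536-well plates and read by automated microscopy after fixing and staining. The read-out is cell count (nuclei) in % of the DMSO control; lower values mean stronger growth inhibition or killing. Concentrations were fixed for each drug; these are the lower of two levels, a fifth of the higher. These are primary screening values without error estimates.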
This is part of the screen, not chosen by result.
An entry leaves out what has no value listed here.

Drugs:
CHIR-265: Cn1c(Nc2ccc(C(F)(F)F)cc2)nc2cc(Oc3ccnc(-c4ncc(C(F)(F)F)[nH]4)c3)ccc21 at 0.08 µM
tozasertib: Cc1cc(Nc2cc(N3CCN(C)CC3)nc(Sc3ccc(NC(=O)C4CC4)cc3)n2)n[nH]1 at 0.006 µM
nutlin-3: COc1ccc(C2=N[C@@H](c3ccc(Cl)cc3)[C@@H](c3ccc(Cl)cc3)N2C(=O)N2CCNC(=O)C2)c(OC(C)C)c1 at 0.1 µM
nilotinib: Cc1cn(-c2cc(NC(=O)c3ccc(C)c(Nc4nccc(-c5cccnc5)n4)c3)cc(C(F)(F)F)c2)cn1 at 0.2 µM
veliparib: C[C@]1(c2nc3c(C(N)=O)cccc3[nH]2)CCCN1 at 1.4 µM
pazopanib: Cc1ccc(Nc2nccc(N(C)c3ccc4c(C)n(C)nc4c3)n2)cc1S(N)(=O)=O at 0.4 µM
fingolimod: CCCCCCCCc1ccc(CCC(N)(CO)CO)cc1 at 2 µM
stibogluconate: O=C(O)[C@@H]1[O][Sb](=[O])([O][Sb]2(=[O])[O][C@H]([C@H](O)CO)[C@H](O)[C@H](C(=O)O)[O]2)[O][C@H]([C@H](O)CO)[C@@H]1O (stereo partly drawn) at 2 µM
ABT-263: CC1(C)CCC(c2ccc(Cl)cc2)=C(CN2CCN(c3ccc(C(=O)NS(=O)(=O)c4ccc(N[C@H](CCN5CCOCC5)CSc5ccccc5)c(S(=O)(=O)C(F)(F)F)c4)cc3)CC2)C1 at 0.4 µM
vincristine: CC[C@]1(O)C[C@H]2CN(CCc3c([nH]c4ccccc34)[C@@](C(=O)OC)(c3cc4c(cc3OC)N(C=O)[C@H]3[C@@](O)(C(=O)OC)[C@H](OC(C)=O)[C@]5(CC)C=CCN6CC[C@]43[C@@H]65)C2)C1 at 0.0001 µM
KU-55933: O=c1cc(-c2cccc3c2Sc2ccccc2S3)oc(N2CCOCC2)c1 at 1 µM

{"pair": "stibogluconate + nutlin-3", "IPC-298": 95.3, "A2058": 96.6, "COLO 800": 118, "A375": 87.5, "COLO 829": 72.3, "C32": 95.8}
{"pair": "pazopanib + nilotinib", "IPC-298": 78.3, "A2058": 95.3, "COLO 800": 125, "A375": 94.6, "COLO 829": 105, "C32": 104}
{"pair": "KU-55933 + veliparib", "IPC-298": 102, "A2058": 98.3, "COLO 800": 75.9, "A375": 94.0, "COLO 829": 114, "C32": 102}
{"pair": "nilotinib + KU-55933", "IPC-298": 89.1, "A2058": 99.1, "COLO 800": 86.9, "COLO 829": 103, "C32": 89.1}
{"pair": "fingolimod + pazopanib", "IPC-298": 79.8, "A2058": 95.0, "COLO 800": 108, "A375": 84.6, "COLO 829": 92.8, "C32": 108}
{"pair": "CHIR-265 + fingolimod", "IPC-298": 57.1, "A2058": 75.7, "COLO 800": 73.8, "A375": 47.1, "COLO 829": 95.4, "C32": 72.9}
{"pair": "pazopanib + CHIR-265", "IPC-298": 63.5, "A2058": 77.2, "COLO 800": 138, "A375": 71.3, "COLO 829": 91.1, "C32": 95.3}
{"pair": "fingolimod + vincristine", "IPC-298": 103, "A2058": 26.5, "COLO 800": 97.3, "A375": 65.9, "COLO 829": 73.1, "C32": 95.3}
{"pair": "ABT-263 + vincristine", "IPC-298": 106, "A2058": 93.1, "COLO 800": 39.4, "A375": 72.7, "COLO 829": 106, "C32": 43.3}
{"pair": "veliparib + vincristine", "IPC-298": 103, "A2058": 18.9, "COLO 800": 120, "A375": 54.1, "COLO 829": 60.9, "C32": 67.9}
{"pair": "nutlin-3 + KU-55933", "IPC-298": 98.2, "A2058": 87.8, "COLO 800": 71.2, "COLO 829": 104, "C32": 90.5}
{"pair": "CHIR-265 + stibogluconate", "IPC-298": 64.7, "A2058": 92.1, "COLO 800": 109, "A375": 64.7, "COLO 829": 118, "C32": 84.8}
{"pair": "fingolimod + nutlin-3", "IPC-298": 103, "A2058": 105, "COLO 800": 96.8, "A375": 50.6, "COLO 829": 78.9, "C32": 85.0}
{"pair": "CHIR-265 + tozasertib", "IPC-298": 62.0, "A2058": 68.3, "COLO 800": 71.8, "A375": 79.1, "COLO 829": 83.7, "C32": 98.0}
{"pair": "stibogluconate + nilotinib", "IPC-298": 96.4, "A2058": 87.0, "COLO 800": 121, "A375": 98.7, "COLO 829": 101, "C32": 105}
{"pair": "vincristine + pazopanib", "IPC-298": 87.1, "A2058": 34.9, "COLO 800": 56.0, "A375": 81.3, "COLO 829": 83.8, "C32": 94.1}
{"pair": "pazopanib + ABT-263", "IPC-298": 97.6, "A2058": 91.6, "COLO 800": 79.2, "A375": 70.8, "COLO 829": 87.7, "C32": 54.9}
{"pair": "veliparib + stibogluconate", "IPC-298": 97.7, "A2058": 87.8, "COLO 800": 118, "A375": 84.2, "COLO 829": 114, "C32": 109}
{"pair": "CHIR-265 + nutlin-3", "IPC-298": 67.0, "A2058": 83.5, "COLO 800": 91.0, "A375": 65.7, "COLO 829": 77.0, "C32": 94.3}
{"pair": "pazopanib + nutlin-3", "IPC-298": 84.8, "A2058": 85.7, "COLO 800": 96.1, "A375": 102, "COLO 829": 61.7, "C32": 92.1}
{"pair": "tozasertib + nilotinib", "IPC-298": 95.4, "A2058": 79.6, "COLO 800": 124, "A375": 90.5, "COLO 829": 116, "C32": 113}
{"pair": "pazopanib + tozasertib", "IPC-298": 86.1, "A2058": 105, "COLO 800": 140, "A375": 80.7, "COLO 829": 97.5, "C32": 102}
{"pair": "veliparib + nilotinib", "IPC-298": 95.1, "A2058": 81.0, "COLO 800": 74.7, "A375": 80.4, "COLO 829": 96.3, "C32": 100}
{"pair": "tozasertib + vincristine", "IPC-298": 96.6, "A2058": 72.2, "COLO 800": 92.5, "A375": 89.0, "COLO 829": 95.4, "C32": 102}
{"pair": "CHIR-265 + KU-55933", "IPC-298": 55.4, "A2058": 96.6, "COLO 800": 109, "A375": 48.8, "COLO 829": 104, "C32": 83.9}

The last 2 entries again:

{"pair": "tozasertib + vincristine", "IPC-298": 96.6, "A2058": 72.2, "COLO 800": 92.5, "A375": 89.0, "COLO 829": 95.4, "C32": 102}
{"pair": "CHIR-265 + KU-55933", "IPC-298": 55.4, "A2058": 96.6, "COLO 800": 109, "A375": 48.8, "COLO 829": 104, "C32": 83.9}

From a melanoma drug combination screen (doi:10.1371/journal.pone.0140310); values rounded.